This assay deals with Mycobacterium tuberculosis H37Rv. Description: MIC, M. tuberculosis. In kind it is cell-based.

This note sets out measurements from patent US7678791B2, “Nitroheteroaryl-containing rifamycin derivatives” (Cumbre IP Ventures, L.P., priority 2006, dated 2010).

Converted amounts (≈) assume the structure as drawn.

In general, MIC refers to the lowest concentration that inhibits growth of the organism.

As to `CO[C@H]1/C=C/O[C@@]2(C)Oc3c(C)c(O)c4c(O)c(c(/C=N/N5CCN(C)CC5)c(O)c4c3C2=O)NC(=O)/C(C)=C\C=C\[C@H](C)[C@H](O)[C@@H](C)[C@@H](O)[C@@H](C)[C@H](OC(C)=O)[C@@H]1C` [rifampin, reference compound], inhibition of growth (MIC) required 0.03 µg/mL (≈ 0.0365 µM).
